This passage reports binding results from publication PMC6801706.

These are yes or no findings as the source states them, for the method shown.

For the test, the target named is T1, glycogen synthase kinase 2 (GSK2) (rice (Oryza sativa L.)) (UniProt Q60EZ2).
T1 sequence: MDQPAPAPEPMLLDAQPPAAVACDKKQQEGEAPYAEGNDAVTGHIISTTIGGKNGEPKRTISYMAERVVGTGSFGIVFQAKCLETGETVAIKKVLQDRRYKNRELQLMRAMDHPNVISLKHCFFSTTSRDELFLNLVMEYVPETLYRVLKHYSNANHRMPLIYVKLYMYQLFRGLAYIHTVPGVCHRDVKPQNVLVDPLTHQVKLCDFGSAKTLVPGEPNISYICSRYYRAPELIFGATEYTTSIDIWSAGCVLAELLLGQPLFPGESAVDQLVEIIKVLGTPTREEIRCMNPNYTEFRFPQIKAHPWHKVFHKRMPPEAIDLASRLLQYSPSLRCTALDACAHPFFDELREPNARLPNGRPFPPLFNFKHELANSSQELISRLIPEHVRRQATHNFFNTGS
Put plainly: two-hybrid; yeast strain AH109; bait pGBKT7-GSK2, prey ABIL1 or ABIL2 in pGADT7; selection on SD-Trp/-Leu/-His medium.

On to “ABI-LIKE 2 (ABIL2) (rice (Oryza sativa L.))”, for which the binding result is recorded as “no binding”.
